{"source": "the supplement of paper PMC12067093", "about": "“Discovery and optimisation of a covalent ligand for TRIM25 and its application to targeted protein ubiquitination” (Chemical Science, 2025)", "compound": "Cc1cc(ccc1-c1ccccc1)C(=O)N1CCCN(CC1)C(=O)CCl [compound 10]", "assay": "probe-labelled cysteine peptide fold change vs DMSO (competition) (log2 fold change); higher = less target engagement (more negative = stronger competition)", "conditions": "THP-1, incubation time: 4 h", "note": "This is one part of the list.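 Also: competitive profiling in live THP-1 cells: cysteine peptides tagged with an iodoacetamide desthiobiotin (IA-DTB) probe, intensity after compound treatment relative to DMSO-treated cells.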"}
{"target": "ELMSAN1_Q6PJG2_442_AVSTGDCGQVLR (UniProt Q6PJG2)", "values": [{"measurement": "probe-labelled cysteine peptide fold change", "setting": "10 µM", "result": -0.182}, {"measurement": "probe-labelled cysteine peptide fold change", "setting": "50 µM", "result": -0.44}]}
{"target": "EIF4A2_Q14240_132+135_VILALGDYMGATCHACIGGTNVR (UniProt Q14240)", "values": [{"measurement": "probe-labelled cysteine peptide fold change", "setting": "10 µM", "result": 0.3}, {"measurement": "probe-labelled cysteine peptide fold change", "setting": "50 µM", "result": 0.0623}]}
{"target": "ELP2_Q6IA86_572+575_LYGHGYEIFCVTCNSSK (UniProt Q6IA86)", "values": [{"measurement": "probe-labelled cysteine peptide fold change", "setting": "10 µM", "result": 0.105}, {"measurement": "probe-labelled cysteine peptide fold change", "setting": "50 µM", "result": -0.17}]}
{"target": "EPS15_P42566_586_VCSELDNNR (UniProt P42566)", "values": [{"measurement": "probe-labelled cysteine peptide fold change", "setting": "10 µM", "result": -0.0714}, {"measurement": "probe-labelled cysteine peptide fold change", "setting": "50 µM", "result": -0.222}]}
{"target": "EPRS_P07814_1301_VACVQVVIIPCGITNALSEEDK (UniProt P07814)", "values": [{"measurement": "probe-labelled cysteine peptide fold change", "setting": "10 µM", "result": -0.0286}, {"measurement": "probe-labelled cysteine peptide fold change", "setting": "50 µM", "result": 0.00582}]}
{"target": "ELMO1_Q92556_663_HEYCIWTDGLNALLGK (UniProt Q92556)", "values": [{"measurement": "probe-labelled cysteine peptide fold change", "setting": "10 µM", "result": 0.442}, {"measurement": "probe-labelled cysteine peptide fold change", "setting": "50 µM", "result": 0.711}]}
{"target": "ENOSF1_Q7L5Y1_67_GTEVVVCAVNALAHHVLNK (UniProt Q7L5Y1)", "values": [{"measurement": "probe-labelled cysteine peptide fold change", "setting": "10 µM", "result": 0.0208}, {"measurement": "probe-labelled cysteine peptide fold change", "setting": "50 µM", "result": -0.191}]}
{"target": "ELAC2_Q9BQ52_245_DSSLVVAFICK (UniProt Q9BQ52)", "values": [{"measurement": "probe-labelled cysteine peptide fold change", "setting": "10 µM", "result": -0.161}, {"measurement": "probe-labelled cysteine peptide fold change", "setting": "50 µM", "result": 0.432}]}
{"target": "ELF2_Q15723_348_NSSPINCSR (UniProt Q15723)", "values": [{"measurement": "probe-labelled cysteine peptide fold change", "setting": "10 µM", "result": -0.37}, {"measurement": "probe-labelled cysteine peptide fold change", "setting": "50 µM", "result": -0.593}]}
{"target": "EP300_Q09472_1247_RKNDTLDPELFVECTECGR (UniProt Q09472)", "values": [{"measurement": "probe-labelled cysteine peptide fold change", "setting": "10 µM", "result": -0.109}, {"measurement": "probe-labelled cysteine peptide fold change", "setting": "50 µM", "result": -0.00924}]}
{"target": "EIF5B_O60841_853_RLAHCEELR (UniProt O60841)", "values": [{"measurement": "probe-labelled cysteine peptide fold change", "setting": "10 µM", "result": 0.222}, {"measurement": "probe-labelled cysteine peptide fold change", "setting": "50 µM", "result": 0.0785}]}
{"target": "ERC1_Q8IUD2_1034_LYIGHLTTLCHDRDPLILR (UniProt Q8IUD2)", "values": [{"measurement": "probe-labelled cysteine peptide fold change", "setting": "10 µM", "result": -0.00605}, {"measurement": "probe-labelled cysteine peptide fold change", "setting": "50 µM", "result": -0.0575}]}
{"target": "ENTPD1_P49961_255_DYNVYTHSFLCYGK (UniProt P49961)", "values": [{"measurement": "probe-labelled cysteine peptide fold change", "setting": "10 µM", "result": -0.0423}, {"measurement": "probe-labelled cysteine peptide fold change", "setting": "50 µM", "result": 0.108}]}
{"target": "ENG_P17813_582_LNIISPDLSGCTSK (UniProt P17813)", "values": [{"measurement": "probe-labelled cysteine peptide fold change", "setting": "10 µM", "result": -0.384}, {"measurement": "probe-labelled cysteine peptide fold change", "setting": "50 µM", "result": -0.275}]}
{"target": "EIF3M_Q7L2H7_125_YTVYCSLIK (UniProt Q7L2H7)", "values": [{"measurement": "probe-labelled cysteine peptide fold change", "setting": "10 µM", "result": -0.0368}, {"measurement": "probe-labelled cysteine peptide fold change", "setting": "50 µM", "result": 0.11}]}
{"target": "EIF3G_O75821_139_EDLNCQEEEDPMNK (UniProt O75821)", "values": [{"measurement": "probe-labelled cysteine peptide fold change", "setting": "10 µM", "result": -0.351}, {"measurement": "probe-labelled cysteine peptide fold change", "setting": "50 µM", "result": -0.173}]}
{"target": "EIF3E_P60228_350_IHQCISINMLADK (UniProt P60228)", "values": [{"measurement": "probe-labelled cysteine peptide fold change", "setting": "10 µM", "result": 0.0405}, {"measurement": "probe-labelled cysteine peptide fold change", "setting": "50 µM", "result": 0.15}]}
{"target": "EPRS_P07814_337_GSQFGQSCCLR (UniProt P07814)", "values": [{"measurement": "probe-labelled cysteine peptide fold change", "setting": "10 µM", "result": 0.0401}, {"measurement": "probe-labelled cysteine peptide fold change", "setting": "50 µM", "result": -0.0341}]}
{"target": "EMG1_Q92979_230_MVSISNYPLSAALTCAK (UniProt Q92979)", "values": [{"measurement": "probe-labelled cysteine peptide fold change", "setting": "10 µM", "result": 0.0545}, {"measurement": "probe-labelled cysteine peptide fold change", "setting": "50 µM", "result": 0.48}]}
{"target": "ELANE_P08246_254_SEDNPCPHPR (UniProt P08246)", "values": [{"measurement": "probe-labelled cysteine peptide fold change", "setting": "10 µM", "result": -0.468}, {"measurement": "probe-labelled cysteine peptide fold change", "setting": "50 µM", "result": -0.401}]}
{"target": "EML4_Q9HC35_820_VHLFQYPCSK (UniProt Q9HC35)", "values": [{"measurement": "probe-labelled cysteine peptide fold change", "setting": "10 µM", "result": -0.0419}, {"measurement": "probe-labelled cysteine peptide fold change", "setting": "50 µM", "result": -0.0122}]}
{"target": "EIF3D_O15371_258_TQGNVFATDAILATLMSCTR (UniProt O15371)", "values": [{"measurement": "probe-labelled cysteine peptide fold change", "setting": "10 µM", "result": 0.227}, {"measurement": "probe-labelled cysteine peptide fold change", "setting": "50 µM", "result": 0.203}]}
{"target": "EIF3D_O15371_19_FMTPVIQDNPSGWGPCAVPEQFR (UniProt O15371)", "values": [{"measurement": "probe-labelled cysteine peptide fold change", "setting": "10 µM", "result": -0.15}, {"measurement": "probe-labelled cysteine peptide fold change", "setting": "50 µM", "result": -0.361}]}
{"target": "EIF4A3_P38919_140_GLLALGDYMNVQCHACIGGTNVGEDIRK (UniProt P38919)", "values": [{"measurement": "probe-labelled cysteine peptide fold change", "setting": "10 µM", "result": 0.22}, {"measurement": "probe-labelled cysteine peptide fold change", "setting": "50 µM", "result": 0.0635}]}
{"target": "ELOF1_P60002_26+29_MTGTLETQFTCPFCNHEK (UniProt P60002)", "values": [{"measurement": "probe-labelled cysteine peptide fold change", "setting": "10 µM", "result": -0.15}, {"measurement": "probe-labelled cysteine peptide fold change", "setting": "50 µM", "result": -0.797}]}
{"target": "ELP1_O95163_1025_ALSAFLTCGNWK (UniProt O95163)", "values": [{"measurement": "probe-labelled cysteine peptide fold change", "setting": "10 µM", "result": 0.116}, {"measurement": "probe-labelled cysteine peptide fold change", "setting": "50 µM", "result": 0.00568}]}
{"target": "ERCC4_Q92889_176_AFTDNAVAFDTGFCHVER (UniProt Q92889)", "values": [{"measurement": "probe-labelled cysteine peptide fold change", "setting": "10 µM", "result": -0.0669}, {"measurement": "probe-labelled cysteine peptide fold change", "setting": "50 µM", "result": -0.0927}]}
{"target": "EPRS_P07814_692_RGFFICDQPYEPVSPYSCK (UniProt P07814)", "values": [{"measurement": "probe-labelled cysteine peptide fold change", "setting": "10 µM", "result": -0.0837}, {"measurement": "probe-labelled cysteine peptide fold change", "setting": "50 µM", "result": -0.277}]}
{"target": "EMC10_Q5UCC4_49_EGEACGTVGLLLEHSFEIDDSANFR (UniProt Q5UCC4)", "values": [{"measurement": "probe-labelled cysteine peptide fold change", "setting": "10 µM", "result": 0.187}, {"measurement": "probe-labelled cysteine peptide fold change", "setting": "50 µM", "result": 0.367}]}
{"target": "EML3_Q32P44_825_VHLFQYPCAR (UniProt Q32P44)", "values": [{"measurement": "probe-labelled cysteine peptide fold change", "setting": "10 µM", "result": 0.303}, {"measurement": "probe-labelled cysteine peptide fold change", "setting": "50 µM", "result": 0.179}]}
{"target": "EML2_O95834_163_AVCCVGFSK (UniProt O95834)", "values": [{"measurement": "probe-labelled cysteine peptide fold change", "setting": "10 µM", "result": 0.0229}, {"measurement": "probe-labelled cysteine peptide fold change", "setting": "50 µM", "result": -0.0945}]}
{"target": "ERCC2_P18074_116_NLCIHPEVTPLR (UniProt P18074)", "values": [{"measurement": "probe-labelled cysteine peptide fold change", "setting": "10 µM", "result": -0.0927}, {"measurement": "probe-labelled cysteine peptide fold change", "setting": "50 µM", "result": -0.272}]}
{"target": "ELP2_Q6IA86_810_EAEGAEWLHFASCGEDHTVK (UniProt Q6IA86)", "values": [{"measurement": "probe-labelled cysteine peptide fold change", "setting": "10 µM", "result": 0.0595}, {"measurement": "probe-labelled cysteine peptide fold change", "setting": "50 µM", "result": -0.00523}]}
{"target": "ELANE_P08246_55_GGHFCGATLIAPNFVMSAAHCVANVNVR (UniProt P08246)", "values": [{"measurement": "probe-labelled cysteine peptide fold change", "setting": "10 µM", "result": -0.344}, {"measurement": "probe-labelled cysteine peptide fold change", "setting": "50 µM", "result": 0.16}]}
{"target": "EP400_Q96L91_879_EIECFWSNIEQVVEIK (UniProt Q96L91)", "values": [{"measurement": "probe-labelled cysteine peptide fold change", "setting": "10 µM", "result": -0.106}, {"measurement": "probe-labelled cysteine peptide fold change", "setting": "50 µM", "result": 0.0487}]}
{"target": "ELANE_P08246_187_SNVCTLVR (UniProt P08246)", "values": [{"measurement": "probe-labelled cysteine peptide fold change", "setting": "10 µM", "result": 0.205}, {"measurement": "probe-labelled cysteine peptide fold change", "setting": "50 µM", "result": 0.0156}]}
{"target": "EIF3M_Q7L2H7_52_GAEISEENSEGGLHVDLAQIIEACDVCLKEDDK (UniProt Q7L2H7)", "values": [{"measurement": "probe-labelled cysteine peptide fold change", "setting": "10 µM", "result": 0.27}, {"measurement": "probe-labelled cysteine peptide fold change", "setting": "50 µM", "result": -0.275}]}
{"target": "EML2_O95834_395_AQFVTCGQDK (UniProt O95834)", "values": [{"measurement": "probe-labelled cysteine peptide fold change", "setting": "10 µM", "result": -0.0631}, {"measurement": "probe-labelled cysteine peptide fold change", "setting": "50 µM", "result": -0.172}]}
